From PMC11197154 come the findings set out here.

The chains behind the UniProt entries cited, without tags or fusion partners.
UniProt P46460: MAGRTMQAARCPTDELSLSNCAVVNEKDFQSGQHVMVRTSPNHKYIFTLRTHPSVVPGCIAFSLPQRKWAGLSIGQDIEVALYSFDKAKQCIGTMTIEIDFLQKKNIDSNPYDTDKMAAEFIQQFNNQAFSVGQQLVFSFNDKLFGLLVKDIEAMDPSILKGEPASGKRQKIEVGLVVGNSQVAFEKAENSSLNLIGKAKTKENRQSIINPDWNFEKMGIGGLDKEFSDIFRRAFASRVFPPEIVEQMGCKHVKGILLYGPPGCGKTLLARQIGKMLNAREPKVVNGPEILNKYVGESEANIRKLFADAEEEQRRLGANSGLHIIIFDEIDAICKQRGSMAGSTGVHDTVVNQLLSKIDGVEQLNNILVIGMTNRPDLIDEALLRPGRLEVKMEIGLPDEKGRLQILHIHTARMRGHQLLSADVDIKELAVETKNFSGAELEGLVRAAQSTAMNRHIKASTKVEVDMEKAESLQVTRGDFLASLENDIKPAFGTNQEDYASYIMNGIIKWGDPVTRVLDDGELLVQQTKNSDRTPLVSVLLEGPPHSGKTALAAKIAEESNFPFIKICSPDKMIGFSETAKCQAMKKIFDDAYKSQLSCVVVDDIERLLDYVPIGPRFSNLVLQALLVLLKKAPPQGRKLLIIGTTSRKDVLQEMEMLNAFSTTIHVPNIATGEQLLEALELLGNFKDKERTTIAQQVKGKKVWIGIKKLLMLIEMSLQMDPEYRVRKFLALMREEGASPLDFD

Results are given in words; binding and its absence hold for the method and conditions named. In cells and extracts the contact can be indirect. Some binding calls cover weakened binding; strength is not graded here.

The target in the test is T1, acid-sensing ion channel 1a (ASIC1a) (mouse (endogenous in C57BL/6J brain)) (UniProt Q6NXK8).
T1 sequence: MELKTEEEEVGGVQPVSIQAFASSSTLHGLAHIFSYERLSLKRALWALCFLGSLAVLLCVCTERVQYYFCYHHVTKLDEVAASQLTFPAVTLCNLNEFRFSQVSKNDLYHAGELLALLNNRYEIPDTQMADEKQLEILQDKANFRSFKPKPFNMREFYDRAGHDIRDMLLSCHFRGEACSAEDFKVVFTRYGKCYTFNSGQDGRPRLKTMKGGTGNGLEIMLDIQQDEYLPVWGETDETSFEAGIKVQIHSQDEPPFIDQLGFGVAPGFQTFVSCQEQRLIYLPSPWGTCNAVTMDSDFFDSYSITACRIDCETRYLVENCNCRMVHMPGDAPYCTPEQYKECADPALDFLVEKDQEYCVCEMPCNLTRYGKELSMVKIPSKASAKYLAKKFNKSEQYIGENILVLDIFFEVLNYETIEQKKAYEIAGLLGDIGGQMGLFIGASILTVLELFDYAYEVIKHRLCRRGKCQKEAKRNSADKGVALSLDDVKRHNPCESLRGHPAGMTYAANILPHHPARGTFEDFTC
The test is described as follows: co-IP; ASIC1a precipitated from mouse brain lysate (sham-operated tissue or peri-infarct tissue 2 h after tMCAO; also after tMCAO in mice given AAV CasRx-Ripk1-Nsf or CasRx control); 4 ug antibody at 4 C overnight, protein G agarose beads 2 h at 4 C, three washes with lysis buffer; blots for RIPK1 and NSF.

As to “N-ethylmaleimide-sensitive fusion ATPase (NSF) (from UniProt P46460 1-744)”, the binding result is recorded as “binds”.
